Reference: publication PMC4851370, “The N-Terminus of the Floral Arabidopsis TGA Transcription Factor PERIANTHIA Mediates Redox-Sensitive DNA-Binding”

Key:
Experiment in all cases: EMSA
[1] = target: T1, PANC114S (Arabidopsis thaliana) (UniProt Q9SX27); settings: with or without 0.9 or 20 mM DTT or 2 mM diamide, 30 min in the dark before probe addition, protein translated in vitro, residues 1-452, label: 5' 32P
T1 sequence (looked up): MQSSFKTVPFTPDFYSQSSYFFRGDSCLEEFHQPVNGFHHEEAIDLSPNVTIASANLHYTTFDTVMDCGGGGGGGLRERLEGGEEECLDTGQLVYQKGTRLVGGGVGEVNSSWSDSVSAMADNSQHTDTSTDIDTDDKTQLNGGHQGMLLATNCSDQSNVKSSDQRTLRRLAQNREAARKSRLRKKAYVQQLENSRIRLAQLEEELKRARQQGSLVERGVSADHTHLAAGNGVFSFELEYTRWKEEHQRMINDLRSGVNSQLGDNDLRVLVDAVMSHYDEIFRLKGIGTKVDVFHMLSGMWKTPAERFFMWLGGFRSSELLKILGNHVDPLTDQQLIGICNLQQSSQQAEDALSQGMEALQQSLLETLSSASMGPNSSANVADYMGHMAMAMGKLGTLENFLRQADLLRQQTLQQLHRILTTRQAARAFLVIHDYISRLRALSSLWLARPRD

[2] = target: T2, PANC27SC68S (Arabidopsis thaliana) (UniProt Q9SX27); settings: with or without 0.9 or 20 mM DTT or 2 mM diamide, 30 min in the dark before probe addition, protein translated in vitro, residues 1-452, label: 5' 32P
T2 sequence (looked up): T1 sequence (looked up) with C27S, C68S, S114C

[3] = target: T3, PANC68SC87S (Arabidopsis thaliana) (UniProt Q9SX27); settings: 2 mM diamide; with or without 0.9 or 20 mM DTT or 2 mM diamide, 30 min in the dark before probe addition; protein translated in vitro; residues 1-452; label: 5' 32P
T3 sequence (looked up): T1 sequence (looked up) with C68S, C87S, S114C

[4] = target: T4, PANC27SC68SC87S (Arabidopsis thaliana) (UniProt Q9SX27); settings: with or without 0.9 or 20 mM DTT or 2 mM diamide, 30 min in the dark before probe addition, protein translated in vitro, residues 1-452, label: 5' 32P
T4 sequence (looked up): T1 sequence (looked up) with C27S, C68S, C87S, S114C

[5] = target: T5, PANC68S (Arabidopsis thaliana) (UniProt Q9SX27); settings: with or without 0.9 or 20 mM DTT or 2 mM diamide, 30 min in the dark before probe addition, protein translated in vitro, residues 1-452, label: 5' 32P
T5 sequence (looked up): T1 sequence (looked up) with C68S, S114C

[6] = target: T6, PANC27S (Arabidopsis thaliana) (UniProt Q9SX27); settings: with or without 0.9 or 20 mM DTT or 2 mM diamide, 30 min in the dark before probe addition, protein translated in vitro, residues 1-452, label: 5' 32P
T6 sequence (looked up): T1 sequence (looked up) with C27S, S114C

“AAGAATCTTTGATCACGTCATCACTCAGATATT (double strand)”: binds ([1]; 0.9 mM DTT); binds more weakly ([1]; 2 mM diamide); binds ([2]; 0.9 mM DTT). “AAGAATCTTTGATCACGTCATCACTCAGATATT (double strand)”: binds more weakly ([2]; 2 mM diamide); binds more weakly [3]; binds ([4]; 0.9 mM DTT). “AAGAATCTTTGATCACGTCATCACTCAGATATT (double strand)”: binds more weakly ([4]; 2 mM diamide); binds ([5]; 0.9 mM DTT); binds more weakly ([5]; 2 mM diamide). “AAGAATCTTTGATCACGTCATCACTCAGATATT (double strand)”: binds ([6]; 0.9 mM DTT); binds more weakly ([6]; 2 mM diamide).

Residue numbers refer to the chain shown, from its start. For at least one entry, the source does not settle the construct or the ends of the probe. The comparison behind a weaker result is the experiment's own reference, which may not be listed here. For some assays here: At least one verdict was read from the data and is not stated in words by the source. Protein sequences can lack the tags named with them.
